Experimental data taken from PubChem BioAssay AID493014 (National Center for Advancing Translational Sciences (NCATS), 2011).
The whole screen tested about 340,000 compounds, of which about 170 (0.05%) were called active. Inconclusive results, whose numbers are uncertain, are shown with a selection of clear calls. Calls follow the shape of the dose curve; as a rule, active = well fitted inhibition curve with a large enough effect in the signal ratio, with a control signal flat (not every such curve was filed as active); inconclusive = small, poorly fitted or top-dose-only effect, or effect the other way, or a change in a side signal; inactive = flat fitted curve, though single readings scatter; the % refers to the signal ratio. Potencies beside an inconclusive call are fits to weak or partial responses and may not hold up.

assay: qHTS Assay to Find Inhibitors of Chronic Active B-Cell Receptor Signaling; conditions: ABC-DLBCL IkBa-CBG/CBR reporter, luminescence ratio (green luciferase fused to IkBa over red control in TMD8 lymphoma cells), 4 h; activity change, negative = inhibition: at 46.1 µM (top of the series);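 as to activity change, negative = inhibition: plate controls were basal doxycycline-induced cells for no effect and cells given 10 µM MG132 for full effect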
Summary of the method: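 Cell line TMD8 (human ABC DLBCL), stably expressing tet-inducible CBG68-IkBa fusion and CBR; IMDM/0.5% FBS; cpd up to 46 uM; dox induction, 4 h, 37C/5% CO2; dual luminescence; green/red ratio; MG132 control.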
Potency is read from the fitted curve at half-maximal effect.

| Structure (SMILES) | activity change, negative = inhibition | Potency |
| --- | --- | --- |
| CCOC(=O)c1c(C)[nH]c(C)c1S(=O)(=O)N1CCCC(C(=O)Nc2ccc(OC)c(OC)c2)C1 (stereo unspecified) | inconclusive: -5.76% |  |
| Brc1[nH]nc2ccccc12 |  | inconclusive: 3.55 µM [falling, partial curve, poor fit] |
| CCOCCn1c(=O)c2c(nc3n2CC(C)CN3CCc2ccccc2)n(C)c1=O (stereo unspecified) | inconclusive: 5.34% |  |
| O=C(Cn1ccccc1=O)Nc1ccc(Cl)c(S(=O)(=O)N2CCCCC2)c1 | inactive |  |
| O=C1CC2(CCN(C(=O)COc3ccc(Cl)cc3)CC2)Oc2ccccc21 | inconclusive: 5.96% |  |
| Cc1cc(=O)oc2cc(OCC(O)CN3CCN(c4ccccc4)CC3)ccc12 (stereo unspecified) | inactive |  |
| N=C1SCC(=O)N1c1nc(-c2ccccc2)cs1 | inconclusive: -4.39% |  |
| O=c1c2c(C(F)(F)F)cc(C(F)(F)F)nc2[nH]n1-c1ccccc1 |  | inconclusive: 13 µM [rising, partial curve, poor fit] |
| Cc1ccc(-n2ncc3c2CC(C)(C)CC3NC(=O)CN2CCCC2=O)cc1 (stereo unspecified) | inconclusive: 0.0761% |  |
| Cc1cccc(C(C#N)c2ccc(Cl)nn2)c1 (stereo unspecified) | inconclusive: 7.63% |  |
| COc1ccccc1-c1oc2ccccc2c1-c1ccc2cc[nH]c2c1 | inconclusive: 22.7% |  |
| COc1ccc(OCC(=O)Nc2ncc3c(n2)CC(C)(C)CC3=O)cc1 | inconclusive: 2.27% |  |
| COCCCNC(=O)C[C@H]1C[C@H](C(=O)N2CCCCC2)[C@@]2(C)c3[nH]c4ccc(Cl)cc4c3CCN2C1=O | inconclusive: 2.44% |  |
| O=C(NC1CCCCC1)c1ccc(-n2cnnn2)cc1 |  | inconclusive: 11.2 µM [falling, partial curve, poor fit] |
| COc1ccc(C(C)NC(=O)c2ccccc2)cc1 (stereo unspecified) |  | inconclusive: 29.1 µM [falling, partial curve, poor fit] |
| CC1CCCN(S(=O)(=O)c2ccc(NC(=O)C3CCN(C(=O)c4ccco4)CC3)cc2)C1 (stereo unspecified) | inconclusive: 2.76% |  |
| Cc1cccc(C)c1OCc1cc(C(=O)N2CC3C[C@@H]4CC2C[C@H](C3)C4)no1 | inactive |  |
| CCN(c1ccccc1)S(=O)(=O)c1csc(C(N)=O)c1 | inconclusive: -5.99% |  |
| COc1ccccc1-c1nc2n(n1)C(c1ccc(Cl)cc1)C(C(N)=O)=C(C)N2 (stereo unspecified) |  | inconclusive: 20.6 µM [falling, partial curve] |
| O=C1C=CC(=O)C(C2=C3C(=O)N(CCc4ccccc4)CC(=O)N3CCC2)=C1 |  | inconclusive: 3.66 µM [falling, partial curve, poor fit] |
| CC1(OC(=O)C2CCCC2)C(=O)C=C2C=C(c3ccsc3)N(CCc3ccccn3)C=C2C1=O (stereo unspecified) | inconclusive: 1.67% |  |

| Structure (SMILES) | activity change, negative = inhibition | Potency |
| --- | --- | --- |
| O=C(CCc1ccc(O)c(O)c1)N/N=C/c1ccc2c(c1)OCO2 | inconclusive: -17.9% |  |
| Cc1nc2sc(C(c3ccco3)N3CCN(c4ccc(F)cc4)CC3)c(O)n2n1 (stereo unspecified) | inactive |  |
| CCn1c(SCC(=O)c2c[nH]c3ccccc23)nnc1-c1cccs1 | inactive |  |
| Cc1nn(-c2ccc(Cl)cc2)c2sc(C(=O)c3c(N)n(C)c(=O)n(C)c3=O)cc12 | inconclusive: 11% |  |
| CCc1noc(C)c1C(=O)N1CCC(CCC(=O)Nc2cccc(OC)c2)CC1 | inconclusive: -6.26% |  |
| COC(=O)c1sccc1NC(=O)CSc1ccccc1NC(=O)CNC(C)C | inconclusive: 1.08% |  |
| O=C(Nc1cccc(F)c1)c1ccc2ncsc2c1 | inconclusive: -9.44% |  |
| CC(=O)c1c(C)nc(-c2ccccc2)nc1NC(=O)C(C)C |  | inconclusive: 2.91 µM [rising, full curve, poor fit] |
| Nc1nnc(SC2CC(=O)N(c3ccccc3)C2=O)s1 (stereo unspecified) | inconclusive: -2.57% |  |
| O=C(NN=Cc1ccc(F)c(F)c1)c1ccc(NS(=O)(=O)c2cccs2)cc1 |  | inconclusive: 23.1 µM [falling, partial curve] |
| COc1cccc(/C=N/NC(=S)NC2CC3CCC2C3)c1OC (stereo unspecified) | inconclusive: -1.3% |  |
| CCOC(=O)c1cnc2nc(N3CCOCC3)nn2c1N | inconclusive: 7.7% |  |
| c1ccc2oc(-c3csc(NCC4CCCO4)n3)cc2c1 (stereo unspecified) |  | inconclusive: 12.6 µM [falling, partial curve, poor fit] |
| O=c1c2ccccc2c(/C=N/c2ncn[nH]2)c(O)n1Cc1ccccc1 | inconclusive: 1.45% |  |
| CCN1C(=O)CC(c2ccccc2)N(C2CCCC2)c2nc(Nc3ccc(C(=O)NC4CCN(C)CC4)cc3OC)ncc21 (stereo unspecified) | inconclusive: -13% |  |
| N#CC1=C(N)Oc2cc(N)ccc2C1c1cc(Br)cs1 (stereo unspecified) |  | inconclusive: 14.1 µM [falling, partial curve, poor fit] |
| COC(=O)[C@@H](NC(=O)Nc1ccc(OC)cc1)C(C)C | inconclusive: 2.15% |  |
| CN(CC(=O)NCCc1ccc(Cl)cc1)S(=O)(=O)c1cccs1 | inconclusive: 2.17% |  |
| Cc1ccc2nc(-c3ccco3)c(Nc3ccccc3)n2c1 |  | inconclusive: 13 µM [falling, partial curve, poor fit] |
| CCOC(=O)c1ccc2nc(NC(=O)c3ccco3)sc2c1 |  | inconclusive: 29.1 µM [rising, single point] |
| CN(C)CCNc1nc2sc3c(c2c(=O)n1CCc1ccccc1)CCCCC3 | inconclusive: -6.4% |  |

Reformatted with bars between the fields: part of the list above
Structure (SMILES) | activity change, negative = inhibition | Potency
Nc1nnc(SC2CC(=O)N(c3ccccc3)C2=O)s1 (stereo unspecified) | inconclusive: -2.57% | 
O=C(NN=Cc1ccc(F)c(F)c1)c1ccc(NS(=O)(=O)c2cccs2)cc1 |  | inconclusive: 23.1 µM [falling, partial curve]
COc1cccc(/C=N/NC(=S)NC2CC3CCC2C3)c1OC (stereo unspecified) | inconclusive: -1.3% | 

The listing continues:

| Structure (SMILES) | activity change, negative = inhibition | Potency |
| --- | --- | --- |
| O=C(Nc1cccnc1)c1cccs1 | inconclusive: 4.28% |  |
| CC(=O)Nc1ccc(C(=O)Nc2ccc3c(c2)OCCO3)cc1 | inactive |  |
| CCCC1(C(=O)OC)NC(c2ccc(OC)c(OC)c2)C2C(=O)N(c3cccc(C(C)=O)c3)C(=O)C21 (stereo unspecified) | inconclusive: 1.44% |  |
| N#Cc1cc(C(=O)c2cc(F)ccc2O)cn(-c2nccs2)c1=O | inconclusive: 16.8% |  |
| Cc1cccc(NC(=S)N2CCC(O)CC2)c1C | inconclusive: 1.67% |  |
| Cc1cccc2cc(/C=N/Nc3ccc(C(=O)O)cc3)c(Cl)nc12 | inconclusive: 15.3% |  |
| CCOc1ccc(-n2nnnc2SCC(=O)Nc2cccc(O)c2)cc1 |  | inconclusive: 17.8 µM [falling, partial curve, poor fit] |
| c1cc(-c2cn(C[C@H]3CC[C@@H]([C@@H]4CC[C@H](Cn5cc(-c6ccsc6)nn5)O4)O3)nn2)cs1 | inconclusive: 4.28% |  |
| CC(Sc1nc2ccccc2s1)C(=O)c1c(N)n(C)c(=O)n(C)c1=O (stereo unspecified) | inactive |  |
| Nc1cc(=O)[nH]c(SCC(=O)N2N=C(c3ccc(Cl)cc3)CC2c2ccco2)n1 (stereo unspecified) | inconclusive: 8.16% |  |
| N/C(Cc1ccccc1Sc1ccccc1)=N\O | inconclusive: -5.02% |  |
| O=C(COC(=O)c1ccc([N+](=O)[O-])s1)Nc1ccc(Cl)cn1 | inconclusive: -16.9% |  |
| O=[N+]([O-])c1ccc(Nc2ccccc2F)nc1 |  | inconclusive: 8.91 µM [rising, partial curve, poor fit] |
| CCCc1[nH]nc2c1C(c1ccc(OCCN3CCOCC3)c(OC)c1)C(C#N)=C(N)O2 (stereo unspecified) | inconclusive: -17.5% |  |
| CC1(C)CCc2cc(-c3ccnc(=S)[nH]3)ccc2O1 | inactive |  |
| Cn1cnc([N+](=O)[O-])c1SCC(=O)NN | inconclusive: 6.19% |  |
| CCOc1cc(CN2CCN(c3cccc(C(F)(F)F)c3)CC2)ccc1O | inconclusive: 0.916% |  |
| CCn1c2ccccc2c2cc(NC(=O)c3coc(=O)c(Br)c3)ccc21 |  | inconclusive: 5.62 µM [falling, partial curve] |
| CC1(c2cc(C(F)(F)F)n3nc(C(=O)O)cc3n2)CC1 | inconclusive: 7.36% |  |
| Cc1ccc(OCCNc2cc(N3CCN(CCO)CC3)ccc2[N+](=O)[O-])cc1C | inconclusive: -17.1% |  |

As a working copy, part of the list above.

| Structure (SMILES) | activity change, negative = inhibition | Potency |
| --- | --- | --- |
| O=c1c2ccccc2c(/C=N/c2ncn[nH]2)c(O)n1Cc1ccccc1 | inconclusive: 1.45% |  |
| CCN1C(=O)CC(c2ccccc2)N(C2CCCC2)c2nc(Nc3ccc(C(=O)NC4CCN(C)CC4)cc3OC)ncc21 (stereo unspecified) | inconclusive: -13% |  |
| N#CC1=C(N)Oc2cc(N)ccc2C1c1cc(Br)cs1 (stereo unspecified) |  | inconclusive: 14.1 µM [falling, partial curve, poor fit] |

More entries.

| Structure (SMILES) | activity change, negative = inhibition | Potency |
| --- | --- | --- |
| CSc1nnc(N2C(=O)C(O)=C(C(=O)c3ccco3)C2c2ccc(F)cc2)s1 (stereo unspecified) | inactive |  |
| Cc1ccccc1NC(=O)c1onc2c1CCCC2 | inconclusive: 243% |  |
| CCS(=O)(=O)N1CCN(S(=O)(=O)c2ccccc2)CC1 | inconclusive: -8.74% |  |
| CCC(=O)N(CCc1ccc(OC)c(OC)c1)Cc1cc2ccc(C)cc2n2nnnc12 | inconclusive: -4.27% |  |
| COC(=O)COc1ccc(S(=O)(=O)N2CCCCC2)cc1[N+](=O)[O-] | inactive |  |
| C=CCn1c(C)cc(C(=O)CSc2nc3ccccc3c(=O)[nH]2)c1C | inactive |  |
| CC(NC(=O)/C=C/c1cnc2ccccc2n1)C12CC3CC(CC(C3)C1)C2 (stereo unspecified) | inconclusive: 17.2% |  |
| Oc1ccccc1-c1nc(/C=C/c2ccccc2)nn1-c1ccccc1 | inconclusive: 10.8% |  |
| COCCn1c(=S)[nH]c2cc(C(=O)NC(C)C)ccc2c1=O | inconclusive: 6.79% |  |
| Cn1c(CC2C(=O)Nc3ccc(Br)cc32)nc2ccccc2c1=O (stereo unspecified) | inconclusive: -2.59% |  |
| CCN(CC)C(=O)COC(=O)c1cc(-c2ccc(OC)cc2)nc2ccccc12 |  | inconclusive: 23.1 µM [falling, single point] |
| CCC(=O)Nc1cccc(NC(=S)NC(=O)c2ccc(C)cc2)c1 | inactive |  |
| CC(C)CC(=O)Nc1c2c(nn1-c1cccc(Cl)c1)CS(=O)(=O)C2 | inconclusive: 0.348% |  |
| Cc1cc(NC(=O)Nc2ccccc2Cl)no1 | inactive |  |
| O=C(O)CCCN1C(=O)c2cccc3cccc(c23)C1=O |  | inconclusive: 0.447 µM [activator, full curve, poor fit] |
| O=C(/C=C/c1ccccc1[N+](=O)[O-])OC1CCCCC1=O (stereo unspecified) | inconclusive: 0.757% |  |
| O=C1Nc2ccc(Cl)cc2C12Nc1ccccc1-c1nnc(SCc3ccccc3F)nc1O2 (stereo unspecified) | inconclusive: -17% |  |
| O=c1[nH]sc2ccccc12 | inconclusive: 11.7% |  |
